In paper PMC2954829:
No constants are given. Whether binding was seen depends on the method and setting. For some assays here: Binding calls can cover weak binding; strength is not graded here. For some assays here: Tags and fused reporters may be left off the sequences shown. For some assays here: Binding seen in cells or lysates may run through a third protein.

Tests used:
[1] = target: T1, mouse Sfr1 (303 amino acids), Gal4 fusion for yeast two-hybrid (mouse) (UniProt Q8BP27); experiment: two-hybrid; Matchmaker Two-Hybrid system 3 (Clontech), Gal4AD (pGADT7) and Gal4DBD (pGBKT7) fusions; growth on SD media without leucine, tryptophan, histidine and adenine
T1 sequence: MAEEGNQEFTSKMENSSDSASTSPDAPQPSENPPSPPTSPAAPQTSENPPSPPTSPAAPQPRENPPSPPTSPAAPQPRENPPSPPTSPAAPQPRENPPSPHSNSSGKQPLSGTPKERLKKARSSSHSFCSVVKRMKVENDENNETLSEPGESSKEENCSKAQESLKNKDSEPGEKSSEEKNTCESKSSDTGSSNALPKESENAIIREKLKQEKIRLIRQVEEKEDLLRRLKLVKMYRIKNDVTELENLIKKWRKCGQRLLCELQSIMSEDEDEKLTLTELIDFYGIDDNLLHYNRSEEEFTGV

[2] = target: T2, endogenous mouse Sfr1 (mouse (endogenous in ES cells)) (UniProt Q8BP27); experiment: co-IP; endogenous proteins, untreated mouse ES cell extract (200 µg), anti-Swi5 or anti-Sfr1 antibodies, Protein G Dynabeads, 4°C, washes with 200 mM NaCl/1% NP-40; Western blotting
T2 sequence: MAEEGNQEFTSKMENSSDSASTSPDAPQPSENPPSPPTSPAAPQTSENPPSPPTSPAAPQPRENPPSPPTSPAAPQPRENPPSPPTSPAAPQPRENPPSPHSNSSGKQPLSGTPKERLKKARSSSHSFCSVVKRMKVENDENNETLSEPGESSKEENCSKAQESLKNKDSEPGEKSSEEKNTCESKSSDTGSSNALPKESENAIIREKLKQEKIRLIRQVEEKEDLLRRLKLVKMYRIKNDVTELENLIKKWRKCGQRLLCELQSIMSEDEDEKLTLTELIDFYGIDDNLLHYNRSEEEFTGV

[3] = target: GST fusion of the mouse Swi5 C-terminal half (mouse); experiment: pull-down; GST or GST fusion from E. coli lysate immobilized to MagneGST; mixed with E. coli lysate (40 µg of proteins) holding His6-Sfr1 or Rad51; R-buffer (20 mM Tris-HCl pH 7.6, 1 mM EDTA, 100 mM NaCl, 0.1% Triton X-100, 1 mM DTT, 10% glycerol), three hours at 4°C; CBB staining and Western blotting; for Rad51 also with ethidium bromide or DNase I; only the target purified
[4] = target: GST-Swi5 (mouse, 89 amino acid form) (mouse); experiment: as above
[5] = target: GST-Swi5N (mouse Swi5 N-terminal half) (mouse); experiment: as above
[6] = target: endogenous mouse Swi5 (mouse (endogenous in ES cells)); experiment: co-IP; endogenous proteins, untreated mouse ES cell extract (200 µg), anti-Swi5 or anti-Sfr1 antibodies, Protein G Dynabeads, 4°C, washes with 200 mM NaCl/1% NP-40; Western blotting

mouse Swi5 C-terminal half, Gal4 fusion for yeast two-hybrid (domain or fragment)
binding [1]: no binding

mouse Swi5 (89 amino acid form), Gal4 fusion for yeast two-hybrid
binding [1]: binds

endogenous mouse Swi5
binding [2]: binds

mouse Swi5 N-terminal half, Gal4 activation domain fusion (domain or fragment)
binding [1]: binds

B1: His6-Sfr1 (mouse, 303 amino acids) (protein, UniProt Q8BP27-2 1-303)
chain: MAEEGNQEFTSKMENSSDSASTSPDAPQPSENPPSPPTSPAAPQTSENPPSPPTSPAAPQPRENPPSPPTSPAAPQPRENPPSPPTSPAAPQPRENPPSPHSNSSGKQPLSGTPKERLKKARSSSHSFCSVVKRMKVENDENNETLSEPGESSKEENCSKAQESLKNKDSEPGEKSSEEKNTCESKSSDTGSSNALPKESENAIIREKLKQEKIRLIRQVEEKEDLLRRLKLVKMYRIKNDVTELENLIKKWRKCGQRLLCELQSIMSEDEDEKLTLTELIDFYGIDDNLLHYNRSEEEFTGV
binding [3]: no binding
binding [4]: binds
binding [5]: binds

B2: endogenous mouse Sfr1 (protein, UniProt Q8BP27-2 1-303)
chain: MAEEGNQEFTSKMENSSDSASTSPDAPQPSENPPSPPTSPAAPQTSENPPSPPTSPAAPQPRENPPSPPTSPAAPQPRENPPSPPTSPAAPQPRENPPSPHSNSSGKQPLSGTPKERLKKARSSSHSFCSVVKRMKVENDENNETLSEPGESSKEENCSKAQESLKNKDSEPGEKSSEEKNTCESKSSDTGSSNALPKESENAIIREKLKQEKIRLIRQVEEKEDLLRRLKLVKMYRIKNDVTELENLIKKWRKCGQRLLCELQSIMSEDEDEKLTLTELIDFYGIDDNLLHYNRSEEEFTGV
binding [6]: binds
